Measurements as given in patent US20120035098A1.
No constants are given. Whether binding was seen depends on the method and setting. Binding calls can cover weak binding; strength is not graded here.

Biological target: GST-TAT fusion protein (HIV-1 TAT protein expressed as a fusion with GST) (HIV-1)
Assay: ELISA: GST-Tat adsorbed on the plate, HPBP in solution, detected with anti-HPBP antibodies

B1: Human Phosphate Binding Protein (HPBP) (protein)
chain: DINGGGATLPQKLYLTPDVLTAGFAPYIGVGSGKGKIAFLENKYNQFGTDTTKNVHWAGSDSKLTATELATYAADKEPGWGKLIQVPSVATSVAIPFRKAGANAVDLSVKELCGVFSGRIADWSGITGAGRSGPIQVVYRAESSGTTELFTRFLNAKCTTQPGTFAVTTVFANSYSLGLSPLAGAVAAIGSVGVMAADNDVTTAQGRITYISPDFAAPTLAGLDDATKVARTGKGSSSGGGAEGKSPAAANVSAAISVVPLPAAADRGDPNVWTPVFGAVTGGGVVAYPDSGYPILGFTDLIFSECYANATQTGQVRNFFTKHYGTSANDNAAIQANAFVPLPSNWKAAVRASYLTASNALSIGDSAVCGGKGRPE
Question: How did the binding turn out when B1 was run?
Answer: The binding was “binds”.
